# Hit rate of the full screen: of about 400,000 compounds, about 13,000 (3.2%) were called active. The inconclusive results got no clear call from the source; some entries with a clear call stand among them for comparison. Calls come from the whole dose curve; as a rule, active = well fitted cell-killing curve with a large enough effect; inconclusive = small, poorly fitted or top-dose-only effect, or effect the other way; inactive = flat fitted curve, though single readings scatter. Potencies of inconclusive entries are doubtful fits and often do not repeat.
# Test: qHTS assay for MDR1-selective chemotherapeutics: Primary screen using the drug-selected MDR subline cells KB-V1; note: nearly all actives have a fitted effect of over 60% in size
# Details: KB-V1 MDR cells viability, CellTiter-Glo, 72 h; activity change, negative = cytotoxicity: at 46.1 µM (top of the series)
# How it was run: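 KB-V1, DMEM (no phenol red) + 10% FBS; cpd pin-transferred, titration series; 72 h, 37 degrees C; CellTiter-Glo, luminescence. Data normalized, curve-fit.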
# % is set by controls: 0 for no effect and ±100 for the full control effect; potency is the fitted concentration of half-maximal effect.
SMILES,Potency,"activity change, negative = cytotoxicity"
Cc1ccc(S(=O)(=O)N(CCCN2CCCC2=O)Cc2cc3c(C)ccc(C)c3[nH]c2=O)cc1,"inconclusive: 20.6 µM [cytotoxic, partial curve]",
O=C(CC12CC3CC(CC(C3)C1)C2)N1CCOCC1,"inconclusive: 10.3 µM [rising, partial curve, poor fit]",
CCCCCCC1CC(C)(C(=O)CNc2nncs2)OC1=O (stereo not drawn),"inconclusive: 18.4 µM [cytotoxic, single point]",
COC(=O)c1ccccc1OCCOCCOc1cccc2ccc(C)nc12,"inconclusive: 18.4 µM [cytotoxic, single point]",
COc1ccc(N/N=C2/CCCCC2=O)cc1,"inconclusive: 29.1 µM [cytotoxic, single point]",
COc1ccc(S(=O)(=O)N2CCN(C(=O)[C@H](Cc3ccccc3)NC(=O)c3ccco3)CC2)cc1,"inconclusive: 8.2 µM [cytotoxic, partial curve]",
CCOCCOc1nc(C)cc(C)c1S(=O)(=O)c1ccccc1C,"inconclusive: 4.61 µM [cytotoxic, full curve]",
CCCC(=O)NC(c1ccc(N(C)C)cc1)c1c(O)ccc2ccccc12 (stereo not drawn),active: 14.6 µM,
CC(C)NC(=O)C1C(c2ccccc2)=Nc2ccccc2N1C(=O)c1ccc(C(F)(F)F)cc1 (stereo not drawn),"inconclusive: 5.17 µM [cytotoxic, full curve]",
Cc1ccc(NC(=O)Cn2nc(C)c(S(=O)(=O)N(C)C)c2C)cc1C,active: 23.1 µM,
CCOC(=O)N1CCC(N(CCOC)C(=O)Nc2ccc(Cl)c(Cl)c2)CC1,"inconclusive: 20.6 µM [cytotoxic, single point]",
Cc1ccc(C(=O)N/N=C/c2ccoc2)cc1C,"inconclusive: 29.1 µM [rising, single point]",
CC(C)Oc1ccc(S(=O)(=O)N2CCOCC2)cc1NC(=O)C1=NN(c2ccccc2)C(=O)CC1,"inconclusive: 16.4 µM [cytotoxic, single point]",
Cc1ccccc1C(=O)O/N=C(\N)c1ccc([N+](=O)[O-])cc1,"inconclusive: 11.6 µM [rising, partial curve]",
COc1ccc(C)cc1NC(=O)c1ccccc1NS(=O)(=O)c1ccc(Cl)s1,active: 3.26 µM,
COc1ccccc1CNc1nc(-c2ccco2)nn1S(=O)(=O)c1ccc(C)cc1,,inactive: -9.44%
O=C(O)c1ccc(CSc2nnc(-c3ccccc3Br)o2)cc1,"inconclusive: 16.4 µM [rising, single point]",
Cc1ccc(C(=O)c2ccccc2C(=O)OCC(=O)Nc2cccc([N+](=O)[O-])c2)cc1,active: 23.1 µM,
CN(C(=O)c1cc2c(cc1Br)OCO2)c1cccc2ccccc12,"inconclusive: 18.4 µM [cytotoxic, single point]",
O=C(N/N=C/c1cccs1)c1cc(-c2cccc3ccccc23)n[nH]1,"inconclusive: 18.4 µM [cytotoxic, single point]",
CC1CCc2cccc3c2N1c1cc(C#N)c(C#N)cc1O3 (stereo not drawn),"inconclusive: 2.06 µM [cytotoxic, partial curve, poor fit]",
CCOc1ccccc1C(=O)Nc1cnn(Cc2ccc(F)cc2)c1,"inconclusive: 2.59 µM [cytotoxic, full curve]",
COc1ccc(OC)c(NC(=S)NCc2ccco2)c1,,inactive: 12.2%

SMILES,Potency,"activity change, negative = cytotoxicity"
CC1=NN(c2ccccc2)C(=O)/C1=C/C=C/c1ccc(N(C)C)cc1,,inactive: -13%
C[C@@H](C(=O)Nc1ccc2ccccc2c1)[C@H]1C[C@]1(C)[C@H](NS(=O)(=O)c1ccccc1)c1ccccc1,,inactive: -10.7%
CCCc1cc(=O)[nH]c2nnc(SCC(=O)NC3CCCCC3)n12,"inconclusive: 29.1 µM [rising, single point]",
COC(=O)/C(=C1/Oc2ccc(C(C)(C)C)cc2S1)C(F)(F)F,"inconclusive: 29.1 µM [rising, single point]",
Cc1ccccc1C(=O)NCc1ccc2c(c1)CCN2C(=O)c1ccccc1,"inconclusive: 3.26 µM [cytotoxic, full curve]",
O=C(Nc1ccc(F)cc1)C1CCN(c2ncnc3c2nc2n3CCCCC2)CC1,,inactive: -24.3%
Cc1nc(CN(C)c2ncnc3ccc(-c4ccc5c(c4)OCO5)cc23)cs1,"inconclusive: 29.1 µM [cytotoxic, single point]",
O=Cc1cn(CCOc2ccc(F)cc2)c2ccccc12,"inconclusive: 20.6 µM [cytotoxic, single point]",
O=C(NCC(=O)N1CCN(C(c2ccccc2)c2ccccc2)CC1)c1ccc(Br)o1,"inconclusive: 32.6 µM [rising, partial curve, poor fit]",
NC(=O)[C@H]1CC2(CC(c3cccc(NC(=O)CC(c4ccccc4)c4ccccc4)c3)=NO2)CN1C(=O)CC(c1ccccc1)c1ccccc1 (stereo partly drawn),"inconclusive: 29.1 µM [rising, partial curve, poor fit]",
CC(/C=C/c1ccc2c(c1)OCO2)=N\NC(=O)c1ccccc1,"inconclusive: 18.4 µM [cytotoxic, single point]",
Cc1cccc(C(=O)OCC(=O)NCCCc2ccccc2)c1O,"inconclusive: 11.6 µM [rising, partial curve, poor fit]",
COc1ccccc1CP(=O)(c1ccccc1)c1ccccc1,"inconclusive: 13 µM [cytotoxic, partial curve]",
O=C(Cn1cnc2c(oc3ccccc32)c1=O)N1CCCc2ccccc21,active: 4.11 µM,
O=C(COc1cccnc1[N+](=O)[O-])Nc1c(Cl)cccc1Cl,"inconclusive: 8.2 µM [rising, partial curve]",
Cc1ccc(N(C(=O)c2csnn2)C(C(=O)NC2CCCCC2)c2cccnc2)cc1 (stereo not drawn),,inactive: -1.05%
NC(=S)NNc1c(F)c(F)c(F)c(F)c1F,,inactive: 4.34%
O=C(COC(=O)C1Cc2ccccc2CN1C(=O)c1ccccc1Cl)Nc1ccc(N2CCOCC2)cc1 (stereo not drawn),active: 14.6 µM,
O=C(Cn1cnc2c(nnn2-c2cccc(Cl)c2)c1=O)N1CCCC1,active: 13 µM,
OC(COc1ccc(CNCCc2ccccc2F)cc1)CN1CCCCC1 (stereo not drawn),,inactive: -17%
Cc1cc(NC(=O)c2ccc(Br)c(S(=O)(=O)N3CCCC3)c2)no1,"inconclusive: 11.6 µM [cytotoxic, partial curve]",
CNC(=O)c1c(NC(=O)c2ccc(S(=O)(=O)N3CCCCC3C)cc2)sc2c1CCN(C)C2 (stereo not drawn),,inactive: -7.31%
O=C(Oc1cccc([N+](=O)[O-])c1)c1cc(-c2ccccc2)nc2ccccc12,,inactive: -7.25%

SMILES,Potency,"activity change, negative = cytotoxicity"
CCOC(=O)C(=CNc1ccccc1C)C(=O)OCC,"inconclusive: 20.6 µM [cytotoxic, partial curve, poor fit]",
COc1ccc(CNC(=O)/C=C/c2cc([N+](=O)[O-])ccc2OC(F)F)cc1OC,"inconclusive: 18.4 µM [cytotoxic, single point]",
COC(=O)c1cc(=O)n(CCc2ccc(OC)c(OC)c2)c(=Nc2ccc(F)c(Cl)c2)s1,active: 20.6 µM,
Cc1ccc(NC(=O)CN2CCN(C3CCCCC3)C(=O)C2=O)cc1,,inactive: -26.8%
N#Cc1ccc(C23CC4(C2)[C@H](CN(P(=O)(c2ccccc2)c2ccccc2)[C@@H]4c2ccccc2)C3c2ccc(Cl)nc2)cc1 (stereo partly drawn),"inconclusive: 23.1 µM [cytotoxic, partial curve, poor fit]",
CCN(CC(=O)Nc1ccc(N2CCOCC2)cc1)C(=O)c1ccc(C(F)(F)F)cc1,"inconclusive: 16.4 µM [cytotoxic, partial curve, poor fit]",
CC1(C(=O)NS(=O)(=O)c2cccs2)CCN1C(=O)c1ccccc1 (stereo not drawn),,inactive: -0.286%
Cc1cccc(C)c1NC(=O)C1(NC(=O)C2CCCN2C(=O)OC(C)(C)C)CCCCC1 (stereo not drawn),"inconclusive: 7.31 µM [cytotoxic, partial curve]",
COC(=O)c1ccc(N/C=C/C(=O)c2ccccc2)cc1,,inactive: 9.84%
CCOC(=O)c1[nH]c(C)c(C(=O)Nc2cc(OC)ccc2OC)c1C,active: 0.501 µM,
CNc1nc(N/N=C/c2ccc([N+](=O)[O-])cc2)nc(Nc2ccccc2)n1,"inconclusive: 29.1 µM [cytotoxic, single point]",
C[C@H]1C(=O)N(C)CCN1C(=O)c1ccccc1OC1CCN(S(C)(=O)=O)CC1,,inconclusive: 32.8%
COc1ccc(Cl)cc1NC(=O)CN1CCC(n2nnc3cc(C)ccc32)CC1,,inactive: -12.1%
O=c1cc(COc2cccc(C(F)(F)F)c2)nc2sc3c(n12)CCCC3,"inconclusive: 32.6 µM [rising, single point]",
CCCCC(CC)C(=O)Nc1cc(C(=O)NCc2ccc(C)cc2)ccc1N1CCC2(CC1)CC(c1cccc(Br)c1)=NO2 (stereo not drawn),"inconclusive: 6.51 µM [rising, partial curve, poor fit]",
CCOC(=O)C1(Cc2ccccc2C(F)(F)F)CCN(C2CCN(C(C)=O)CC2)CC1,,inactive: -18.6%
COC(=O)Cc1ccc(NC(=S)N2CCN(c3ccc(F)cc3)CC2)cc1,"inconclusive: 11.6 µM [cytotoxic, partial curve, poor fit]",
COc1cccc(OCCn2cc(C(=O)c3ccco3)c3ccccc32)c1,active: 20.6 µM,
COc1ccccc1C(=O)N/C(=C/c1ccc(Br)cc1)C(=O)N1CCCC1,,inactive: 1.75%
Cc1ccc(NC(=O)NNC(=O)c2cc3ccccc3cc2O)cc1,"inconclusive: 18.4 µM [rising, partial curve, poor fit]",
CN(Cc1ccccc1)C(=O)[C@@H]1CCCN1C(=O)OC(C)(C)C,"inconclusive: 20.6 µM [cytotoxic, partial curve]",
CCc1ccc(-c2cc(C)no2)cc1S(=O)(=O)NCCc1ccccc1,"inconclusive: 25.9 µM [cytotoxic, partial curve, poor fit]",

# Nothing new here: four of the compounds above.
SMILES,Potency,"activity change, negative = cytotoxicity"
CNc1nc(N/N=C/c2ccc([N+](=O)[O-])cc2)nc(Nc2ccccc2)n1,"inconclusive: 29.1 µM [cytotoxic, single point]",
C[C@H]1C(=O)N(C)CCN1C(=O)c1ccccc1OC1CCN(S(C)(=O)=O)CC1,,inconclusive: 32.8%
COc1ccc(Cl)cc1NC(=O)CN1CCC(n2nnc3cc(C)ccc32)CC1,,inactive: -12.1%
O=c1cc(COc2cccc(C(F)(F)F)c2)nc2sc3c(n12)CCCC3,"inconclusive: 32.6 µM [rising, single point]",

# — PubChem BioAssay AID1347076 (National Center for Advancing Translational Sciences (NCATS), 2019)
